This passage reports binding results from publication PMC3896488.

Sequences of proteins named here, by UniProt entry; tags and fusion partners are left off. A change or cut given only in a name is not applied to a line headed by its entry. A line that says so, or that is headed by a name, gives the form on record, which may keep a tag or linker.
Protein kinase C β2 (rat (endogenous in Wistar rat heart)) (P68403, form named): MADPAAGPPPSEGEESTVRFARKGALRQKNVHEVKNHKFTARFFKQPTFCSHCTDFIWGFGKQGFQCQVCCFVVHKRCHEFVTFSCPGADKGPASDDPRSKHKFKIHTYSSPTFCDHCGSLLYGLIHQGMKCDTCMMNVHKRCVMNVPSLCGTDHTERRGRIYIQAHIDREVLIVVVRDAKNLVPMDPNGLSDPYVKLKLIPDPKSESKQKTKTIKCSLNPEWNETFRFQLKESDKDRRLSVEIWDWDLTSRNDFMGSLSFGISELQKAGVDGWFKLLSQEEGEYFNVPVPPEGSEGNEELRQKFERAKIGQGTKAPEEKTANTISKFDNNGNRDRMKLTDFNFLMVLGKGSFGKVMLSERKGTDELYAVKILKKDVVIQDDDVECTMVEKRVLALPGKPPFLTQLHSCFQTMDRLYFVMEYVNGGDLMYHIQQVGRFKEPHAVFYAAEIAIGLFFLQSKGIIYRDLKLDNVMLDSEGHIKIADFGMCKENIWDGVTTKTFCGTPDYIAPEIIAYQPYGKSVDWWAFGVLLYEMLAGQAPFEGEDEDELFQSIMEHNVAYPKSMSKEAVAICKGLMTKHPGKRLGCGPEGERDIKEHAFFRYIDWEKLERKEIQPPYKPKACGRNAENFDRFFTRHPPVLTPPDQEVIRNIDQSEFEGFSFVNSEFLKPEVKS

This test has as its target Protein kinase C β2 (rat (endogenous in Wistar rat heart)) (UniProt P68403). Kind of test: co-IP; 500 µg protein from control and diabetic rat hearts (untreated or perfused with 1 µM H-1152) incubated with anti-PKCβ2 or anti-ROCK2 antibody cross-linked to agarose resin (Pierce); Western blot of the precipitate. In general terms: Immunoblotting shows a protein as a band on a membrane.

Results are given in words; binding and its absence hold for the method and conditions named. Binding seen in cells or lysates may run through a third protein. Some binding calls cover weakened binding; strength is not graded here.

B1: phosphoinositide-dependent protein kinase-1 (enzyme, UniProt O55173 1-559)
chain: MARTTSQLYDAVPIQSSVVLCSCPSPSMVRSQTEPSSSPGIPSGVSRQGSTMDGTTAEARPSTNPLQQHPAQLPPQPRKKRPEDFKFGKILGEGSFSTVVLARELATSREYAIKILEKRHIIKENKVPYVTRERDVMSRLDHPFFVKLYFTFQDDEKLYFGLSYAKNGELLKYIRKIGSFDETCTRFYTAEIVSALEYLHGKGIIHRDLKPENILLNEDMHIQITDFGTAKVLSPDSKQARANSFVGTAQYVSPELLTEKSACKSSDLWALGCIIYQLVAGLPPFRAGNEYLIFQKIIKLEYDFPEKFFPKARDLVEKLLVLDATKRLGCEEMEGYGPLKAHPFFESITWENLHQQTPPKLTAYLPAMSEDDEDCYGNYDNLLSQFGCMQVSSSSSSHSLSAVDASLPQRSGSNIEQYIHDLDTNSFELDLQFSEDEKRLLLEKQAGGNPWHQFVENNLILKMGPVDKRKGLFARRRQLLLTEGPHLYYVDPVNKVLKGEIPWSQELRPEAKNFKTFFVHTPNRTYYLMDPSGNAHKWCRKIQEVWRQQYQSSPDAAVQ
Take B1: the binding entry is “binds”.
